The target in this test is human myc-tagged Rictor (human) (UniProt Q6R327). The test can be described thus: co-IP; whole cell lysate of Ric0 cells immunoprecipitated with anti-Myo1C or anti-myc antibodies, immunoblotted for the myc-tag or Myo1C; normal mouse IgG as non-specific control. In general terms: Immunoblotting shows a protein as a band on a membrane.

Amino acid sequences for entries named in this document (tags omitted).
UniProt Q6R327: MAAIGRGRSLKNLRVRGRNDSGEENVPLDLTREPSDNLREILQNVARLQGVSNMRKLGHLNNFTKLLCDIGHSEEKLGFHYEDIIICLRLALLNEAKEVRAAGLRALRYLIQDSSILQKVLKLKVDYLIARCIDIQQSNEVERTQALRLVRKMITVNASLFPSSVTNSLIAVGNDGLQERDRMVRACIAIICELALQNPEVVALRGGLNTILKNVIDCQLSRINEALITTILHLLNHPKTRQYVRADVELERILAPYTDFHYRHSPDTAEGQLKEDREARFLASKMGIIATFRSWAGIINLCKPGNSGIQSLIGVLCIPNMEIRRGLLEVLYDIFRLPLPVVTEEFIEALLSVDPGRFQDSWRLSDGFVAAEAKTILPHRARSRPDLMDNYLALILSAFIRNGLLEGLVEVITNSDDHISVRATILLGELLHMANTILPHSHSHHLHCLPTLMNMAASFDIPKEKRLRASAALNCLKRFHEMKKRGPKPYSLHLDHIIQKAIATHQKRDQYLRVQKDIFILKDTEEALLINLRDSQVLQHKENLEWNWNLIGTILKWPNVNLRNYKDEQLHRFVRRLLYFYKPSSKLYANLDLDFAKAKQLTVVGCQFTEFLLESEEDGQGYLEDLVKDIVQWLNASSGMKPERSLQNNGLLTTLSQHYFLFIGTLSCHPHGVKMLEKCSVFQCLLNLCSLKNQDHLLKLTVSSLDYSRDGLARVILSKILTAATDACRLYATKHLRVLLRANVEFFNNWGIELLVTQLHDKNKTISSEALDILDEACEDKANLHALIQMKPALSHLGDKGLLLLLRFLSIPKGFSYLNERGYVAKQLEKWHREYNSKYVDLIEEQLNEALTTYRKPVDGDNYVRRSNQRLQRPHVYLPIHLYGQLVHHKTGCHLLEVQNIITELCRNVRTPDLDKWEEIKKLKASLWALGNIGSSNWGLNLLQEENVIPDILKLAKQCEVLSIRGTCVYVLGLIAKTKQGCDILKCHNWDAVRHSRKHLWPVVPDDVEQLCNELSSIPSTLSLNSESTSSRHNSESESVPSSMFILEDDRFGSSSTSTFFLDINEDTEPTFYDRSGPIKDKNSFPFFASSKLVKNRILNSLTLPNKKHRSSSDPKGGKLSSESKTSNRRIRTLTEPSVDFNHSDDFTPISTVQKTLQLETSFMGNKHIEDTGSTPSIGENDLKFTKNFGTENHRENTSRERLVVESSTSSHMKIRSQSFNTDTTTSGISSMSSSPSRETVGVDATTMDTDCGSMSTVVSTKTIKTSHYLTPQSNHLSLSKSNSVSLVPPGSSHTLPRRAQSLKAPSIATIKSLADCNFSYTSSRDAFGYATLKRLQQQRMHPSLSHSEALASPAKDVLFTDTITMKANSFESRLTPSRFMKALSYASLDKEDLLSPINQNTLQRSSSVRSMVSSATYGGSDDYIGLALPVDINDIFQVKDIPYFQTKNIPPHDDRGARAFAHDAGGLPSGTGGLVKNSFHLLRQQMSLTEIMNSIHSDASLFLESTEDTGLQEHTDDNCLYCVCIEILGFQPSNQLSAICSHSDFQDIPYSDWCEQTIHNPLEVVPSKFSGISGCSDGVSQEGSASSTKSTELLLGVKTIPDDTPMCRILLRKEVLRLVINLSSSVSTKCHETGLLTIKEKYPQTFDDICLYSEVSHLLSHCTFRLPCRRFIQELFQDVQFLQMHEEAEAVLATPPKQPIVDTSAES
UniProt Q9WTI7: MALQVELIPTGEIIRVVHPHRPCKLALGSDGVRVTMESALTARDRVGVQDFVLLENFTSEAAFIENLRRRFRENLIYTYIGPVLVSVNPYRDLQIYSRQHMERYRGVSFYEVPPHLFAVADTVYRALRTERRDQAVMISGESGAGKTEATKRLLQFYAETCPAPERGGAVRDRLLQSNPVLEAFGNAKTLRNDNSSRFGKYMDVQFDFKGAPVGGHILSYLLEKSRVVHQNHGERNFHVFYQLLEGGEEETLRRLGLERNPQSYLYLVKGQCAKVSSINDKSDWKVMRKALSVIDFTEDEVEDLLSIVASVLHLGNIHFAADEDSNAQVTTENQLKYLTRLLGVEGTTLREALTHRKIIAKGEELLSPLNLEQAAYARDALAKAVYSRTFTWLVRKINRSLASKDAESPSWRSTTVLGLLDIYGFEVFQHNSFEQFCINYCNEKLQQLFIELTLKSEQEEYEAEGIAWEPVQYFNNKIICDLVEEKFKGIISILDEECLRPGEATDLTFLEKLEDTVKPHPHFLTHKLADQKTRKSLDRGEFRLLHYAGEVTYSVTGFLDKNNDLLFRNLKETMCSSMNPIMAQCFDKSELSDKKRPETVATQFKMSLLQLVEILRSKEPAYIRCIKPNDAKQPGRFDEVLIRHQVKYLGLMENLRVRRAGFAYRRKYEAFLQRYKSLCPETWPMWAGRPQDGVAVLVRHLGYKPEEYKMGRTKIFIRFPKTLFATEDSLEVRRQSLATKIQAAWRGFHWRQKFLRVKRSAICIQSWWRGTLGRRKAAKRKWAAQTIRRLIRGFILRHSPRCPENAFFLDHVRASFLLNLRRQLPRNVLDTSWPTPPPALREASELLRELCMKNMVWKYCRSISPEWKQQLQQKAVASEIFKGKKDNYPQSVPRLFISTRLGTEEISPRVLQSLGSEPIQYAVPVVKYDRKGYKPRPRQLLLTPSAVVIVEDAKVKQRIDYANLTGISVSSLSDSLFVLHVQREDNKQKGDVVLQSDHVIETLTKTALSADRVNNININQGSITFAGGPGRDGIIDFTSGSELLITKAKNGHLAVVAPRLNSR

No constants are given. Whether binding was seen depends on the method and setting. Binding seen in cells or lysates may run through a third protein. Some binding calls cover weakened binding; strength is not graded here.

As to “unconventional myosin Myo1C (from UniProt Q9WTI7 1-1063)”, the binding entry is on record as “binds”.
